Laboratory results from patent US20130337050A1.
Results are given in words; binding and its absence hold for the method and conditions named. Some entries that bind do so weakly or less than the wild type.

Columns and labels:
[1] = target: GST-mTfR1 (GST-fused recombinant protein of the partial sequence 321-329 of mouse transferrin receptor 1) (mouse); assay: Glutathione-Sepharose pull-down, western blotting for poliovirus (mixture 4-1)
[2] = target: GST-mTfR1 (GST-fused recombinant protein of the partial sequence 321-329 of mouse transferrin receptor 1) (mouse); assay: Glutathione-Sepharose pull-down, western blotting for poliovirus (mixture 4-7)
[3] = target: GST-hTfR2 (GST-fused recombinant protein of the partial sequence 341-349 of human transferrin receptor 2) (human); assay: Glutathione-Sepharose pull-down, western blotting for poliovirus (mixture 4-8)

Measured: binding

live poliovirus (Mahoney strain) (from UniProt P03300 580-881; P03300 70-341; P03300 342-579)
binds: all assays above
